Test results as given in patent US20240409647A1, “BISPECIFIC BINDING PROTEINS AGAINST ALARMINS AND USES THEREOF” (SINOMAB BIOSCIENCE LIMITED, priority 2022, published 2024).
These are yes or no findings as the source states them, for the method shown. Some binding calls cover weakened binding; strength is not graded here.

Amino acid sequences for entries named in this document (tags omitted). A change or cut given only in a name is not applied to a line headed by its entry. Chains listed by the source or under a name are the forms on record and can include a tag or linker.
full-length rhesus monkey IL-17RB expressed on HEK293 cells (H9FWT9, form named): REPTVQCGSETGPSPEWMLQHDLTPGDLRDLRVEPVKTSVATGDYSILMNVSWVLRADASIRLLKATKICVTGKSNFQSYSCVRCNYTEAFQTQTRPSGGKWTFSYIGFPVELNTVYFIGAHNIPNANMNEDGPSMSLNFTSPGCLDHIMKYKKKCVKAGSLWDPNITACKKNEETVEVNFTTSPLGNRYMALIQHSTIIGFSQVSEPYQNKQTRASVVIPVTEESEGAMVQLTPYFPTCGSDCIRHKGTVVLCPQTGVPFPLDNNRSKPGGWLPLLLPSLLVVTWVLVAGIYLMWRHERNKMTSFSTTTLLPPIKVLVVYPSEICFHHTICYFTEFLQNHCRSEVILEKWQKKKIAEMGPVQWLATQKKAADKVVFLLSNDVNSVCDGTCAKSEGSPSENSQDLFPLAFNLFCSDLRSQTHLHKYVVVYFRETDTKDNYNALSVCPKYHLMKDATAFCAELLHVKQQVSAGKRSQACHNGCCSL
rhesus monkey IL-17RB protein (recombinant, R&D systems) (H9FWT9, form named): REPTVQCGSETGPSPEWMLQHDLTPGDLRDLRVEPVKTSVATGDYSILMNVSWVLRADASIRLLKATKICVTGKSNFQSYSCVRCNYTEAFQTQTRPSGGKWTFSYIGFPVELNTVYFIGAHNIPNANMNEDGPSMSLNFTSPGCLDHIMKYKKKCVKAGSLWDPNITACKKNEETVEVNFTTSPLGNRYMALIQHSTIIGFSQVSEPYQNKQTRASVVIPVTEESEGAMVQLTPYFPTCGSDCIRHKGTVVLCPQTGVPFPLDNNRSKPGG

Legend:
[1] = biological target: full-length rhesus monkey IL-17RB expressed on HEK293 cells (rhesus monkey) (UniProt H9FWT9); assay: flow cytometry, transfected HEK293 cells
[2] = biological target: rhesus monkey IL-17RB protein (recombinant, R&D systems) (rhesus monkey) (UniProt H9FWT9); assay: ELISA, coated IL-17RB
[3] = biological target: cynomolgus monkey IL-17RB protein (recombinant, R&D systems) (cynomolgus monkey); assay: ELISA, coated IL-17RB

Measured: binding

B1: SM17 (antibody, human IgG4 S228P, kappa, V domains shown)
VH: QVQLVQSGAEVKKPGASVKVSCKASGYTFISYWMNWVRQAPGQGLEWMGRIDPYDSEIQYNQKFKDRVTMTRDTSISTAYMELSRLRSDDTAVYYCARSGGFDWFAYWGQGTLVTVSS
VL: DIQMTQSPSSLSASVGDRVTITCRASENINSNLAWYQQKPGKAPKLLLYDVTNLADGVPSRFSGSGSGTDYTLTISSLQPEDFATYYCQHFWGPPYTFGGGTKVEIKR
binds: all assays above
